Reference: paper PMC11125477 (PLOS ONE, 2024)
No constants are given. Whether binding was seen depends on the method and setting. Binding seen in cells or lysates may run through a third protein. Some binding calls cover weakened binding; strength is not graded here.

The chains behind the UniProt entries cited, without tags or fusion partners. Residues count along the entry.
UniProt Q63191, residues 22-1216: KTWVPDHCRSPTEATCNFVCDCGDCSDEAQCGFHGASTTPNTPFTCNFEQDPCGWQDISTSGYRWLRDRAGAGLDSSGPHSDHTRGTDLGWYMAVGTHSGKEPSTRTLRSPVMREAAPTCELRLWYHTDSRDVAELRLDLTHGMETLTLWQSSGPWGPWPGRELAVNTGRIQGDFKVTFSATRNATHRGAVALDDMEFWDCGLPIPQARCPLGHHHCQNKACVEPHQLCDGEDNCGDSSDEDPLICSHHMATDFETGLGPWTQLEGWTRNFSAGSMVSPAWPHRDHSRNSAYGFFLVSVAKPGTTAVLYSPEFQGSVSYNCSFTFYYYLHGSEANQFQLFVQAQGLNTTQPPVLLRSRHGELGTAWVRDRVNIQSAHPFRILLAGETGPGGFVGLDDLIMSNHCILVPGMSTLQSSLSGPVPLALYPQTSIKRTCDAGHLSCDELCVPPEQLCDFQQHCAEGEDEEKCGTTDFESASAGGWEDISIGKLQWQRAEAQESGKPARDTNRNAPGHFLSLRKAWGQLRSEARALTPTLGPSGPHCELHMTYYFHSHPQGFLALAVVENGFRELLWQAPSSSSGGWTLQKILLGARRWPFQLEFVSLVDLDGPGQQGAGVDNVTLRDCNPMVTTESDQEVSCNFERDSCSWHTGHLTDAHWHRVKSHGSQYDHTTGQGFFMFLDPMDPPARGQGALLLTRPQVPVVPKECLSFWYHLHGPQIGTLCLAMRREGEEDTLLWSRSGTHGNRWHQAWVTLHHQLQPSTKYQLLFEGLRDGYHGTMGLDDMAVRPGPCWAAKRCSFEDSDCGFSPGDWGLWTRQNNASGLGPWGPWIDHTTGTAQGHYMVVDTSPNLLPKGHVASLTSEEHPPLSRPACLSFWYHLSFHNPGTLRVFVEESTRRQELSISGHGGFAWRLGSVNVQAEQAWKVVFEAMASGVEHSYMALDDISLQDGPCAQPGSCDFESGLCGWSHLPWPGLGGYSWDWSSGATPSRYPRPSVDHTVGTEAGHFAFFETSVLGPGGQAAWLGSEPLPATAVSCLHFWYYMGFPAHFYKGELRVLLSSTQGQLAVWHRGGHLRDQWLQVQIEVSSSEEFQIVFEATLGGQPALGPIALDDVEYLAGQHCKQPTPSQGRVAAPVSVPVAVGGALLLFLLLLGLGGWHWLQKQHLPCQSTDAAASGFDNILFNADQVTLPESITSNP
UniProt O15169: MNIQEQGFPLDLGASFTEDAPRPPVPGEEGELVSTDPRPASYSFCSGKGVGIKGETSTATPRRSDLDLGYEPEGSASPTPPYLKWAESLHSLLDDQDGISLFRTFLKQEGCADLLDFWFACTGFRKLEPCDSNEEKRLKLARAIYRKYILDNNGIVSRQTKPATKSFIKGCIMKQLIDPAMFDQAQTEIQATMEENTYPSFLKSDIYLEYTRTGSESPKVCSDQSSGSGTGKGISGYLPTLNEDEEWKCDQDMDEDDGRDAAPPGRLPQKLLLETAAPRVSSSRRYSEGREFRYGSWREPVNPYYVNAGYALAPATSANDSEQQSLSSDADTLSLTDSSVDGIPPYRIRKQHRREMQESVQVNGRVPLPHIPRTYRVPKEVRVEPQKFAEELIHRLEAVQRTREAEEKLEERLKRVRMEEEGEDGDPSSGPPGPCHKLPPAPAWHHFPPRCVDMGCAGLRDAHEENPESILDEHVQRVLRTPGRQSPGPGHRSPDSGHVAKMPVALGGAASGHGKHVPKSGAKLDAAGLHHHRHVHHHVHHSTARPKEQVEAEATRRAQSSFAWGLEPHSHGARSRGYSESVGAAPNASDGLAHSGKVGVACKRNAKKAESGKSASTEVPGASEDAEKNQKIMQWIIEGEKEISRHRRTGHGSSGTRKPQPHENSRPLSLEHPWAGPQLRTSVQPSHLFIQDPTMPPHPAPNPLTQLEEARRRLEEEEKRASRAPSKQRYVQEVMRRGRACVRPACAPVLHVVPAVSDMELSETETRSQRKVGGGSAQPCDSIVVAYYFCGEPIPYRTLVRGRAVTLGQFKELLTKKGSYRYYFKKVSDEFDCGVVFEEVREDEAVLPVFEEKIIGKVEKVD

Tests used:
[1] = target: T1, MAMDC4 (UniProt Q63191 22-1216); assay: co-IP; HEK293 cells overexpressing MAMDC4, control or 50% Wnt3a conditioned media for 6hrs; NP-40 lysis buffer; lysates precipitated with anti-MAMDC4 (hybridoma supernatant) or control IgG on Protein G Dynabeads overnight at 4°C; immunoblot; input 1/50th of lysate
T1 construct: HEK293 cells also hold endogenous (human) MAMDC4, which the anti-MAMDC4 antibody may precipitate as well; also called Endotubin; AEGP; source: HEK293, transfected (overexpressed), in lysate

[2] = target: AMOT (human (endogenous in HEK293)) (UniProt Q4VCS5); assay: co-IP; HEK293 cells transfected with MAMDC4 or empty vector, or expressing control or MAMDC4 shRNA; NP-40 lysis buffer; lysates precipitated with rabbit anti AMOT on Protein G Dynabeads overnight at 4°C; immunoblot

Substance	binding [1]	binding [2]
Axin1 (from UniProt O15169 1-862)	binds	
β-catenin (from UniProt P35222 1-781)	binds	binds
